The series is described as follows: peptide made by a vendor (Fmoc solid-phase peptide synthesis). Conditions: whole synthesis, high-performance liquid chromatography.

Some peptides are written in HELM: one residue between dots, names in brackets for other building blocks, links after the first $.

This is an account of results in paper PMC10928576 (Aging Cell, 2023).

Regarding PEPTIDE1{K.Y.K.Q.K.R.R.S.Y.K}$$$$V2.0, the “purity (crude or final not stated)” value was “greater than 97%”.
